For two molecules, binding results are on record in patent US20250034239A1.

Sequences of proteins named here, by UniProt entry; tags and fusion partners are left off. Residues count along the entry.
UniProt P11680, residues 23-464: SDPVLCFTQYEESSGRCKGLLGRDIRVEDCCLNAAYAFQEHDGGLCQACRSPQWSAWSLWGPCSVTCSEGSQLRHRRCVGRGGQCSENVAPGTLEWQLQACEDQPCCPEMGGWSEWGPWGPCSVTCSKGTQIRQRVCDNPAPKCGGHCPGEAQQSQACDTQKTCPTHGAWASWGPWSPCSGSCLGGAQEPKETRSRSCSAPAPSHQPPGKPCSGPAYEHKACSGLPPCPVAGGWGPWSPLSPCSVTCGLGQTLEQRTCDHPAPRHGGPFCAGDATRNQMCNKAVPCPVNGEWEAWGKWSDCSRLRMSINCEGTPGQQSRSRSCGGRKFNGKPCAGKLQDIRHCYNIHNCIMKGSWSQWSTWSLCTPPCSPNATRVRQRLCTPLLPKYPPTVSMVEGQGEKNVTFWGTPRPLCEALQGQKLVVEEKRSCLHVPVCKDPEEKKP
UniProt P27918, residues 28-469: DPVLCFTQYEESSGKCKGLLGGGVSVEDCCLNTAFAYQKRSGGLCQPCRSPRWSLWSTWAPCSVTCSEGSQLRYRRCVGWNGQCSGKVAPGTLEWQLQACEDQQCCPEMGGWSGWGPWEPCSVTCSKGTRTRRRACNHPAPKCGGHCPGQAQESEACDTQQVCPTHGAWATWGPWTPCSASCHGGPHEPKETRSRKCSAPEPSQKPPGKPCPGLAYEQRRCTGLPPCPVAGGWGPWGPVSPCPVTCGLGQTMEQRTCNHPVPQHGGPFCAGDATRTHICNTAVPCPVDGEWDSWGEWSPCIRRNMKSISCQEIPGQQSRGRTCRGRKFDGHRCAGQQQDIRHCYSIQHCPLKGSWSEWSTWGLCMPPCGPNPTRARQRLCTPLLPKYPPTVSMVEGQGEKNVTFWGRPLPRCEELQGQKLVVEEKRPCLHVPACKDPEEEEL

No constants are given. Whether binding was seen depends on the method and setting. Some results given as binding are weak or reduced against the parent protein; the word gives no strength. Tags and fused reporters may be left off the sequences shown.

For assay [1], the target named is mouse properdin (mouse) (UniProt P11680). As to the kind of experiment: ELISA on mouse properdin.
For assay [2], the target named is human properdin (human) (UniProt P27918). As to the kind of experiment: ELISA on human properdin.

B1: SLN7160 VHH-Fc (Fc fusion, not shown: a dimerising Fc or GST)
chain: HVQLVESGGGSVQSGGSLRLSCAASAYIYSSYCMGWFRQAPGKERERVSVINSDGRTSYADSVKGRFTISQDNAKNTLYLQMNSLKPEDTAMYYCAAVILPPTDGMEYSCNYPAAEYNYWGQGTQVTVSS
In the case of B1, the binding entry in assay [1] and in assay [2] was “binds” each time.

B2: SLN12036 VHH-Fc (Fc fusion, not shown: a dimerising Fc or GST)
chain: HVQLVESGGGSVQAGGSLRLSCAHPEYTSSSYCMAWIRQAPGKEREGVAAIDTDGSTSYTDSVKGRFTISKDNAKNTLYLQMNNLKPEDTAMYYCAAAPWLLAYGDYCVTRPDFGEWGQGTQVTVSS
As to B2, the binding result in assay [1] and in assay [2] was “binds” throughout.
